Reference: paper PMC9944737
These are yes or no findings as the source states them, for the method shown. Binding seen in cells or lysates may run through a third protein. Some entries that bind do so weakly or less than the wild type.

Amino acid sequences for entries named in this document (tags omitted).
UniProt P35222: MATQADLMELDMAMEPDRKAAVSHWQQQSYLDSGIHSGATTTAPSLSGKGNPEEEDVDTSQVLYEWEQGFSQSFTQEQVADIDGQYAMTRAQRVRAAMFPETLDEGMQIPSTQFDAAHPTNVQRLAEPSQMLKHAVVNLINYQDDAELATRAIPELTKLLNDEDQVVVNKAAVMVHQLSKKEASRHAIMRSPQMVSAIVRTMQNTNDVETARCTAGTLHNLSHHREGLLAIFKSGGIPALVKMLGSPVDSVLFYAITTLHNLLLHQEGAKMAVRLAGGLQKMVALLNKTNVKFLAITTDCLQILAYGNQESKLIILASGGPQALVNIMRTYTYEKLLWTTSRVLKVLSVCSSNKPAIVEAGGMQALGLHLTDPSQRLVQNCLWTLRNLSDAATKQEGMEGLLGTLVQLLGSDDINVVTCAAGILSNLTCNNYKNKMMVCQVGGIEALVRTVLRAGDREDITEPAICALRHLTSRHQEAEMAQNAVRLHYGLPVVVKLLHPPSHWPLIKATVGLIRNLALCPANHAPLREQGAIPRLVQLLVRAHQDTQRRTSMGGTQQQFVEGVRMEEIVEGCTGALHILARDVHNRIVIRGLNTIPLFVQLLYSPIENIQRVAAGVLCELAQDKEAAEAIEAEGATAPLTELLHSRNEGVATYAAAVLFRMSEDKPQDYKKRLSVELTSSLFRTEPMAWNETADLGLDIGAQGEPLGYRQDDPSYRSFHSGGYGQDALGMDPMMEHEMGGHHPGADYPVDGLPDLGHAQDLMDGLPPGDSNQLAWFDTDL

Target: T1, harmonin (USH1C), endogenous in HEK293T cells (human (endogenous in HEK293T)) (UniProt Q9Y6N9)
T1 sequence: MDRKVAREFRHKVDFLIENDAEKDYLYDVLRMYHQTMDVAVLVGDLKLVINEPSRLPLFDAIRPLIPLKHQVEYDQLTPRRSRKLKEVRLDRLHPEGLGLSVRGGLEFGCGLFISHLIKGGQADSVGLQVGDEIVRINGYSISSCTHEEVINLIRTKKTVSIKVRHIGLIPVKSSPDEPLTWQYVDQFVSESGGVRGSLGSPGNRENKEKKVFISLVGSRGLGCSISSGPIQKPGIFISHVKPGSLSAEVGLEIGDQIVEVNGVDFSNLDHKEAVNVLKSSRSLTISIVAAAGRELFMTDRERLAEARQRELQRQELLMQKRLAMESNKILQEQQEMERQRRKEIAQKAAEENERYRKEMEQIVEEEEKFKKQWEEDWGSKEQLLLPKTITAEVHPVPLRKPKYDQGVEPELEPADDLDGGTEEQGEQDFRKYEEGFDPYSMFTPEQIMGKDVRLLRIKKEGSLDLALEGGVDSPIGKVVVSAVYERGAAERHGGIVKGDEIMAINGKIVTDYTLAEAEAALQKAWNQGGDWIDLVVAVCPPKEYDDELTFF
Assay: proximity ligation; Duolink PLA in fixed HEK293T cells, endogenous proteins, anti-harmonin (rabbit) and anti-β-catenin (mouse) antibodies; controls with only one or none of the primary antibodies

binding: binds
Substance: β-catenin, endogenous in HEK293T cells (from UniProt P35222 1-781)
